Experimental data taken from patent publication US20080193947A1 (priority 2004, published 2008).

Experiment: peptide synthesis
Conditions: whole synthesis

Sequence | purity (crude or final not stated)
EDMQRQMAGLMEKMQAAV (N- and C-terminal blocking) | 95%
GAIIGLMVGGVVIA (listed as Homo sapiens) | 80%

Plain letter strings leave the end groups untold.
